In PMC4844679:
These are yes or no findings as the source states them, for the method shown. In cells and extracts the contact can be indirect. Some entries that bind do so weakly or less than the wild type. Sequences can lack the tags named with a protein. Each block holds one binder with its values, some of them ahead of it.

Sequences of proteins named here, by UniProt entry; tags and fusion partners are left off. A change or cut given only in a name is not applied to a line headed by its entry.
UniProt P04913: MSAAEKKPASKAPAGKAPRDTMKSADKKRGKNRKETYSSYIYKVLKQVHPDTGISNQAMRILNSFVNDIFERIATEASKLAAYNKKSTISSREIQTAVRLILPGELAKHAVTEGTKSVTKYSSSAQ

How the values were obtained:
[1] = biological target: T1, Rhp6-TAP (S. pombe) (S. pombe) (UniProt P23566); experiment: co-IP; co-IP of Rpa1-GFP with Rhp6-TAP; method as for Figure 3f (lysates of MMS-challenged cells treated with ethidium bromide for 10 min)
T1 sequence: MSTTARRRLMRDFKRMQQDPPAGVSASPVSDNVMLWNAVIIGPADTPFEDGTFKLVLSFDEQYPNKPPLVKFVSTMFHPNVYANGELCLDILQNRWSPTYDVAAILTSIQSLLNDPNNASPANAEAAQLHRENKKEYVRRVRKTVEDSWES

[2] = biological target: T2, Ddb1 (S. pombe), epitope-tagged, expressed from its genomic locus (S. pombe) (UniProt O13807); experiment: co-IP; 10 ug of ethidium bromide added to pre-cleared S. pombe lysates, 10 min on ice, before immunoprecipitation with 5 ug of anti-Myc antibody (Supplementary Fig. 1e)
T2 sequence: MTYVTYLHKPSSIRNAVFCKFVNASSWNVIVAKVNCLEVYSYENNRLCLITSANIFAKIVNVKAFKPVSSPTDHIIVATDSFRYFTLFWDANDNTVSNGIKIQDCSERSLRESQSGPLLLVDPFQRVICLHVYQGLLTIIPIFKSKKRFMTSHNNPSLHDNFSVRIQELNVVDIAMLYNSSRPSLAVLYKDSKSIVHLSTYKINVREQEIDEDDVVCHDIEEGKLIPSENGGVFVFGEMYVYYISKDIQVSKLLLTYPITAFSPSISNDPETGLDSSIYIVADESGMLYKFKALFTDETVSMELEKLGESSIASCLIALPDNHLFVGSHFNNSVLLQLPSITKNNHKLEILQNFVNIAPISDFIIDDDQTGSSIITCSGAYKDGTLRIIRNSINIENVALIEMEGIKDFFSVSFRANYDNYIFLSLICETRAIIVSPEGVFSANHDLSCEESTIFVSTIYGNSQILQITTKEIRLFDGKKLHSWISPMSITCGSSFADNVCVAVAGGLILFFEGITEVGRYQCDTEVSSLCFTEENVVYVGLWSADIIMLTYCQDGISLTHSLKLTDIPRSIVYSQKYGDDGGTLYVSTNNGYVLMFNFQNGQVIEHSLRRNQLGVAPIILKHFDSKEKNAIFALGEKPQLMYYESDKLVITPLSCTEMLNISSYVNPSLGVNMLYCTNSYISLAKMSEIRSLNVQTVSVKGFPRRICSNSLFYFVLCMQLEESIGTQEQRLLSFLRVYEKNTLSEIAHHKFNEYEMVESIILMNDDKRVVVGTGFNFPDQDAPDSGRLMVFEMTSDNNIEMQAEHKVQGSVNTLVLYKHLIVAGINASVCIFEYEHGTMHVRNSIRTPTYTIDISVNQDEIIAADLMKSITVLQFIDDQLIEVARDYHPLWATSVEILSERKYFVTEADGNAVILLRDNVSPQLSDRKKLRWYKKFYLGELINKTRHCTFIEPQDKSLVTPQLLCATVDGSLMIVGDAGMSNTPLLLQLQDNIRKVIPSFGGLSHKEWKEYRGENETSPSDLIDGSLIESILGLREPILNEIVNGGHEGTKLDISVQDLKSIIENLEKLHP

[3] = biological target: T2, Ddb1 (S. pombe), epitope-tagged, expressed from its genomic locus (S. pombe); experiment: co-IP; S. pombe lysates in IP2 lysis buffer (100 mM NaCl, 10 mM Tris-HCl pH 7.5, 5 mM EDTA, 0.5% NP-40), anti-Myc antibody 2 h at 4 °C, Protein G DynaBeads overnight; tagged proteins from their genomic loci; untreated cells and cells after UV (500 J m^-2) or IR (80 Gy), which enhanced the interaction
[4] = biological target: Flag-tagged histone H2B (K119 wild type), S. pombe (S. pombe) (UniProt P04913); experiment: co-IP; lysates of MMS-challenged S. pombe cells, treated with ethidium bromide for 10 min, precipitated by anti-Flag antibody

binding [1]: binds
B1: Rpa1-GFP (S. pombe) (protein, UniProt Q92372 1-609)
chain: MAERLSVGALRIINTSDASSFPPNPILQVLTVKELNSNPTSGAPKRYRVVLSDSINYAQSMLSTQLNHLVAENKLQKGAFVQLTQFTVNVMKERKILIVLGLNVLTELGVMDKIGNPAGLETVDALRQQQNEQNNASAPRTGISTSTNSFYGNNAAATAPAPPPMMKKPAAPNSLSTIIYPIEGLSPYQNKWTIRARVTNKSEVKHWHNQRGEGKLFSVNLLDESGEIRATGFNDQVDAFYDILQEGSVYYISRCRVNIAKKQYTNVQNEYELMFERDTEIRKAEDQTAVPVAKFSFVSLQEVGDVAKDAVIDVIGVLQNVGPVQQITSRATSRGFDKRDITIVDQTGYEMRVTLWGKTAIEFSVSEESILAFKGVKVNDFQGRSLSMLTSSTMSVDPDIQESHLLKGWYDGQGRGQEFAKHSVISSTLSTTGRSAERKNIAEVQAEHLGMSETPDYFSLKGTIVYIRKKNVSYPACPAADCNKKVFDQGGSWRCEKCNKEYDAPQYRYIITIAVGDHTGQLWLNVFDDVGKLIMHKTADELNDLQENDENAFMNCMAEACYMPYIFQCRAKQDNFKGEMRVRYTVMSINQMDWKEESKRLINFIESAQ

binding [2]: binds
binding [3]: binds
B2: Wdr70 (S. pombe), epitope-tagged, expressed from its genomic locus (protein, UniProt Q9UT73 1-576)
chain: MDGTNNTIPLQFGKQAQTYDINALIARFIRPKESFLINSVEKESESKLNSKSTTLQSSDSEDWDSEENEDDITDVGVPGSHEIMFPGHSKIVTTTTFDKNGSRFYTGSLDNTIHCWDLNGLSATNPHPFKIIDPTDTNADNVGRYPVSKLSCSTKNQILALYTHSQPILYDRDGSLIVRFSKGDQYIRNMYNTKGHIAEITDGCWQPDSSQIFLTTGYDSTARIWDVNRTKSQLEVFVHVPEGSHTGLSRIPVTSCAWNPAKPDNFATAVLDGSIQFWQKGSRTKRPVMKIKDAHLPQQGISCLSFSQDGNYLLSRGEDNALRVWDLRNSNKCVNERIDILTPKAGGNAIFSPTQKLILAGSTAVNSMKAPLFVLDAMTLDTKATLFFDSKSTVTASVSAVSWNEKINQVSLGSADGNAYVLFSPNESIRGVKDAAMRPPKSKHIDDDLSSTVHINSLSGSAGTSDFGLVEETTESASAYFLEARRRRNAVRKDPKLSRQPQVGRLLEENSVDDIPLATMLNEDPREALLKYADVAKSNPMFTKMYSETQPTPIYQGVTEGDISSEEGNPSKKQKR

binding [4]: binds
B3: EGFP-tagged Wdr70 (S. pombe), from plasmid Rep41-EGFP-Wdr70 (protein, UniProt Q9UT73 1-576)
chain: B2 chain
